Results reported in article PMC3790011, “Transcription Factor Reb1p Regulates DGK1-encoded Diacylglycerol Kinase and Lipid Metabolism in Saccharomyces cerevisiae*”.
The exact form of at least one protein or probe is not confirmed. The comparison behind a weaker result is the experiment's own reference, which may not be listed here. Where a protein sequence is shown, tags need not be part of it.

Molecular target: T1, Reb1p (His6-Reb1p) (Saccharomyces cerevisiae RS453) (UniProt P21538)
T1 sequence (looked up, limits assumed): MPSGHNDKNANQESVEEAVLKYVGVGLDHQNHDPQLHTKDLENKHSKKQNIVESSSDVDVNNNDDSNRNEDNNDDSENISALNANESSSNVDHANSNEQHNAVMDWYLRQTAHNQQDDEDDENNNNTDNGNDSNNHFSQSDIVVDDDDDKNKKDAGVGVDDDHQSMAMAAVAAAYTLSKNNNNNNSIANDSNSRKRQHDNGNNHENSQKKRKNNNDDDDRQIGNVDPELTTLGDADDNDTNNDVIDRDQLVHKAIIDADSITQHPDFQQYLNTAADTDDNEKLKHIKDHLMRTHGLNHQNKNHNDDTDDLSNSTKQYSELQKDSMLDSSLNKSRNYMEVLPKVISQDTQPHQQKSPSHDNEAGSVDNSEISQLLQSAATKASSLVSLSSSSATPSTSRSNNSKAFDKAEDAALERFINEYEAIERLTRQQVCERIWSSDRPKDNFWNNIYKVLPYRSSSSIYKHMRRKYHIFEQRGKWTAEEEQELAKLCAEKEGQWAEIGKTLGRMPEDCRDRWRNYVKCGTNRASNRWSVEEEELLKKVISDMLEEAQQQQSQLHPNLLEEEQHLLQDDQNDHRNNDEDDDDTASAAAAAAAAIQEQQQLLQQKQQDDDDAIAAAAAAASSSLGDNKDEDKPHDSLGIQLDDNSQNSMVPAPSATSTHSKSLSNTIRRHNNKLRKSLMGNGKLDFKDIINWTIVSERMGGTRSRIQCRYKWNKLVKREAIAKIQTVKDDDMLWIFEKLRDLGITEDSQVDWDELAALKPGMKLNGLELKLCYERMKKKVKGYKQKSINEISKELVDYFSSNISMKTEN
Test: EMSA
Settings: 10 mM Mg2+, 0.2-1.0 ug Reb1p, 4 pmol probe, shift greatly attenuated; 10 mM Tris-HCl pH 8.0, 10 mM MgCl2, 50 mM KCl, 1 mM DTT, 0.025 mg/ml poly(dI-dC), 0.2 mg/ml BSA, 0.04% IGEPAL CA-630, 10% glycerol; 15 min, room temperature; recombinant protein; protein details: N-terminal His6 (pET-15b); label: 32P (alpha-32P dTTP, Klenow)

## AGGGTCCATAGCGGTGAACAAATTATTGG (double strand) [DGK1 promoter Reb1p site mutant (GT to TG)]
  binding result: binds more weakly
